In US10751335B2 (priority 2016, dated 2020):

Conditions: mouse, in vivo, ip, 6 mg/kg

SMILES: CN1CC[C@]23c4c5ccc(O)c4O[C@H]2[C@@H](O)C=C[C@H]3[C@H]1C5 [morphine]
- plasma and brain levels at various time points: not detectable
